From a melanoma drug combination screen (doi:10.1371/journal.pone.0140310); values rounded.

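The test systems are human melanoma cell lines, treated with a pair of drugs for 72 h and then stained and imaged. Each value is the cleaved-PARP-positive fraction of nuclei relative to DMSO-treated wells, in %, so that 100 equals the control and higher values mean more apoptosis. Every drug was used at one fixed concentration, the higher of two screened. No replicate spread is given; individual values may be noisy. Basal and induced levels differ widely between cell lines.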
An unselected part of the screen is shown.
An entry leaves out what has no value listed here.

Every entry is a combination with JZL184 at 5 µM: O=C(Oc1ccc([N+](=O)[O-])cc1)N1CCC(C(O)(c2ccc3c(c2)OCO3)c2ccc3c(c2)OCO3)CC1

{"second drug": "COc1ccc(C2=N[C@@H](c3ccc(Cl)cc3)[C@@H](c3ccc(Cl)cc3)N2C(=O)N2CCNC(=O)C2)c(OC(C)C)c1 at 0.5 µM", "A375": 158, "WM3619": 94.6, "SK-MEL-2": 47.9, "UACC-62": 304, "MEL-HO": 155, "A2058": 74.2, "SK-MEL-5": 123, "LB2518-MEL": 94.3}
{"second drug": "Cn1cncc1[C@@](N)(c1ccc(Cl)cc1)c1ccc2c(c1)c(-c1cccc(Cl)c1)cc(=O)n2C at 0.05 µM", "A375": 245, "WM3619": 139, "SK-MEL-2": 159, "UACC-62": 265, "MEL-HO": 172, "A2058": 228, "SK-MEL-5": 160, "LB2518-MEL": 74.0}
{"second drug": "COc1ccc2c(c1)CCC1C2CCC2(C)C(NCCCCCCN3C(=O)C=CC3=O)CCC12 (stereo not drawn) at 2 µM", "A375": 138, "WM3619": 150, "SK-MEL-2": 83.7, "UACC-62": 78.4, "MEL-HO": 98.1, "A2058": 147, "SK-MEL-5": 90.5, "LB2518-MEL": 70.9}
{"second drug": "CCN(CC)CCCCNc1ncc2cc(-c3cc(OC)cc(OC)c3)c(NC(=O)NC(C)(C)C)nc2n1 at 0.5 µM", "A375": 28.5, "WM3619": 82.3, "SK-MEL-2": 43.2, "UACC-62": 81.8, "MEL-HO": 84.9, "A2058": 57.4, "SK-MEL-5": 108, "LB2518-MEL": 53.6}
{"second drug": "NC(=O)c1ccc(N(C(N)=O)c2c(F)cccc2F)nc1-c1ccc(F)cc1F at 2 µM", "A375": 91.8, "WM3619": 254, "SK-MEL-2": 173, "UACC-62": 422, "MEL-HO": 76.4, "A2058": 157, "SK-MEL-5": 90.8, "LB2518-MEL": 135}
{"second drug": "C[C@@H]1CCN(C(=O)CC#N)C[C@@H]1N(C)c1ncnc2[nH]ccc12 at 5 µM", "A375": 185, "WM3619": 90.3, "UACC-62": 105, "MEL-HO": 61.3, "A2058": 82.1, "SK-MEL-5": 94.2}
{"second drug": "CCCCCCCCCCCCCCCCCCOP(=O)([O-])OC1CC[N+](C)(C)CC1 at 2 µM", "A375": 153, "WM3619": 64.6, "SK-MEL-2": 27.0, "UACC-62": 121, "MEL-HO": 82.6, "A2058": 127, "SK-MEL-5": 105, "LB2518-MEL": 66.3}
{"second drug": "O=c1[nH]nc(Sc2ncc([N+](=O)[O-])s2)n1-c1ccc2c(c1)OCCO2 at 1 µM", "A375": 43.9, "WM3619": 110, "SK-MEL-2": 212, "UACC-62": 266, "MEL-HO": 110, "A2058": 96.8, "SK-MEL-5": 169, "LB2518-MEL": 51.3}
{"second drug": "NC(=O)Nc1cc(-c2cccc(F)c2)sc1C(=O)N[C@H]1CCCNC1 at 0.1 µM", "A375": 469, "WM3619": 375, "SK-MEL-2": 82.4, "UACC-62": 62.5, "MEL-HO": 47.0, "A2058": 259, "SK-MEL-5": 122, "LB2518-MEL": 193}
{"second drug": "Cn1nnc2c(C(N)=O)ncn2c1=O at 10 µM", "A375": 115, "WM3619": 140, "SK-MEL-2": 20.8, "UACC-62": 148, "MEL-HO": 136, "A2058": 914, "SK-MEL-5": 72.0, "LB2518-MEL": 103}
{"second drug": "O=S(=O)(c1ccccc1)N(CC(F)(F)F)c1ccc(C(O)(C(F)(F)F)C(F)(F)F)cc1 at 7 µM", "A375": 107, "WM3619": 112, "SK-MEL-2": 63.4, "UACC-62": 81.2, "MEL-HO": 109, "A2058": 40.9, "SK-MEL-5": 37.2, "LB2518-MEL": 44.6}
{"second drug": "Nc1ccn([C@@H]2O[C@H](CO)[C@@H](O)C2(F)F)c(=O)n1 at 0.002 µM", "A375": 140, "WM3619": 251, "SK-MEL-2": 89.7, "UACC-62": 266, "MEL-HO": 150, "A2058": 194, "SK-MEL-5": 153, "LB2518-MEL": 399}
{"second drug": "CCCCCCCCc1ccc(CCC(N)(CO)CO)cc1 at 10 µM", "A375": 273, "WM3619": 5540, "SK-MEL-2": 2580, "UACC-62": 75.7, "MEL-HO": 2150, "A2058": 6490, "SK-MEL-5": 349, "LB2518-MEL": 16200}
{"second drug": "O=C(Nc1cc(C(F)(F)F)cc(C(F)(F)F)c1)c1cc(Cl)ccc1O at 0.08 µM", "A375": 91.2, "WM3619": 78.1, "SK-MEL-2": 49.8, "UACC-62": 219, "MEL-HO": 74.6, "A2058": 77.8, "SK-MEL-5": 35.5, "LB2518-MEL": 42.0}
{"second drug": "CO[C@@H]1[C@H](N(C)C(=O)c2ccccc2)C[C@H]2O[C@]1(C)n1c3ccccc3c3c4c(c5c6ccccc6n2c5c31)C(=O)NC4 at 0.4 µM", "A375": 388, "WM3619": 169, "SK-MEL-2": 152, "UACC-62": 289, "MEL-HO": 138, "A2058": 1470, "SK-MEL-5": 65.6, "LB2518-MEL": 193}
{"second drug": "Cc1cc(N2CCOCC2)cc2[nH]c(-c3c(NC[C@@H](O)c4cccc(Cl)c4)cc[nH]c3=O)nc12 at 1 µM", "A375": 56.8, "WM3619": 409, "SK-MEL-2": 155, "UACC-62": 185, "MEL-HO": 47.9, "A2058": 116, "SK-MEL-5": 95.1, "LB2518-MEL": 60.0}
{"second drug": "CCN(CC)CCNC(=O)c1c(C)[nH]c(/C=C2\\C(=O)Nc3ccc(F)cc32)c1C at 2 µM", "A375": 94.8, "WM3619": 129, "SK-MEL-2": 222, "UACC-62": 228, "MEL-HO": 86.0, "A2058": 367, "SK-MEL-5": 345, "LB2518-MEL": 77.2}
{"second drug": "N#Cc1c(O)c2c(-c3ccc(-c4ccccc4O)cc3)csc2[nH]c1=O at 10 µM", "A375": 51.1, "WM3619": 92.6, "SK-MEL-2": 53.1, "UACC-62": 76.2, "MEL-HO": 84.1, "A2058": 91.9, "SK-MEL-5": 28.2, "LB2518-MEL": 44.9}
{"second drug": "Nc1cccc2c1CN(C1CCC(=O)NC1=O)C2=O (stereo not drawn) at 5 µM", "A375": 69.8, "WM3619": 106, "SK-MEL-2": 122, "UACC-62": 212, "MEL-HO": 190, "A2058": 173, "SK-MEL-5": 227, "LB2518-MEL": 49.0}

For reference, 2 entries once more:

Second drug,A375,WM3619,SK-MEL-2,UACC-62,MEL-HO,A2058,SK-MEL-5,LB2518-MEL
NC(=O)Nc1cc(-c2cccc(F)c2)sc1C(=O)N[C@H]1CCCNC1 at 0.1 µM,469,375,82.4,62.5,47.0,259,122,193
CCN(CC)CCNC(=O)c1c(C)[nH]c(/C=C2\C(=O)Nc3ccc(F)cc32)c1C at 2 µM,94.8,129,222,228,86.0,367,345,77.2